Reference: the supplement of paper PMC5355238
Structures can show the parent of a compound that is named as a salt. This is one part of the list. Many values rest on one well or one pass, so single values are uncertain.

tested on: Reh; test: S-phase gammaH2AX median, Z-score vs plate median (drug alone); higher = more S-phase DNA damage; conditions: MK1775 concentration 0 nM; 10 µM; 4 h

SMILES	S-phase gammaH2AX median (Z-score)
CCCCNc1cc(C(=O)O)cc(S(N)(=O)=O)c1Oc1ccccc1 [Bumetanide]	0.0874
NC(N)=NC(N)=Nc1ccccc1 [1-Phenylbiguanide]	-0.0946
NCCc1ccc(O)c(O)c1 [Dopamine hydrochloride]	-0.0157
O=C(/C=C/c1cccnc1)NCCCCC1CCN(C(=O)c2ccccc2)CC1	0.0251
C[C@H](Cc1ccc(O)c(O)c1)[C@@H](C)Cc1ccc(O)c(O)c1	-0.156
C[C@H](CS)C(=O)N1CCC[C@H]1C(=O)O [Captopril]	-0.00971
Cn1cnc2c(F)c(Nc3ccc(Br)cc3Cl)c(C(=O)NOCCO)cc21 [AZD6244 (Selumetinib)]	0.0932
NC(=O)c1ccccc1 [Benzamide]	-0.0816
Nc1ncnc2c1ncn2C1CCCC1 [9-cyclopentyladenine]	-0.068
O=C1NC(c2cccc([N+](=O)[O-])c2)=CCN1c1ccccc1O [Icilin]	-0.11
CCCN(CC1CC1)c1nc(C)nc(Nc2c(Cl)cc(Cl)cc2Cl)c1Cl	0.0882
CCCCCC(O)CCCC(=O)O (centres undefined) [5-hydroxydecanoic acid sodium]	-0.00945
N#CC1(c2ccc(NC(=O)c3cccnc3NCc3ccncc3)cc2)CCCC1 [Apatinib (YN968D1)]	-0.0607
Nc1nc(N)c2nc(-c3ccccc3)c(N)nc2n1 [Triamterene]	0
Cc1ccc(C(=O)N(CCCN)[C@@H](c2oc3cc(Cl)ccc3c(=O)c2Cc2ccccc2)C(C)C)cc1	-0.101
Cn1nnc2c(C(N)=O)ncn2c1=O [Temozolomide]	0.0197
CN1[C@@H]2CC[C@H]1C[C@@H](OC(=O)C(O)c1ccccc1)C2 (mixture of isomers) [DL-Homatropine hydrobromide]	0.0189
C[C@]12CC[C@H](O)CC1=CC[C@@H]1[C@@H]2CC[C@]2(C)C(c3cccnc3)=CC[C@@H]12 [Abiraterone (CB-7598)]	0.0329
C=C1C(=O)O[C@H]2[C@H]1CC/C(C)=C/CC[C@@]1(C)O[C@@H]21 [Parthenolide]	0.125
CC(CN(C)C)CN1c2ccccc2CCc2ccccc21 (centres undefined) [Trimipramine maleate]	-0.38

Sorted by length of the SMILES (ascending): 12 of the compounds above
SMILES	S-phase gammaH2AX median (Z-score)
NC(=O)c1ccccc1 [Benzamide]	-0.0816
NCCc1ccc(O)c(O)c1 [Dopamine hydrochloride]	-0.0157
CCCCCC(O)CCCC(=O)O (centres undefined) [5-hydroxydecanoic acid sodium]	-0.00945
Nc1ncnc2c1ncn2C1CCCC1 [9-cyclopentyladenine]	-0.068
CC(CN(C)C)CN1c2ccccc2CCc2ccccc21 (centres undefined) [Trimipramine maleate]	-0.38
CCCCNc1cc(C(=O)O)cc(S(N)(=O)=O)c1Oc1ccccc1 [Bumetanide]	0.0874
O=C1NC(c2cccc([N+](=O)[O-])c2)=CCN1c1ccccc1O [Icilin]	-0.11
CCCN(CC1CC1)c1nc(C)nc(Nc2c(Cl)cc(Cl)cc2Cl)c1Cl	0.0882
C[C@H](Cc1ccc(O)c(O)c1)[C@@H](C)Cc1ccc(O)c(O)c1	-0.156
C=C1C(=O)O[C@H]2[C@H]1CC/C(C)=C/CC[C@@]1(C)O[C@@H]21 [Parthenolide]	0.125
Cc1ccc(C(=O)N(CCCN)[C@@H](c2oc3cc(Cl)ccc3c(=O)c2Cc2ccccc2)C(C)C)cc1	-0.101
C[C@]12CC[C@H](O)CC1=CC[C@@H]1[C@@H]2CC[C@]2(C)C(c3cccnc3)=CC[C@@H]12 [Abiraterone (CB-7598)]	0.0329

Next results follow:

SMILES	S-phase gammaH2AX median (Z-score)
COC(=O)[C@H]1[C@H]2C[C@H]3c4[nH]c5ccccc5c4CCN3C[C@H]2CC[C@@H]1O [Rauwolscine hydrochloride]	0.207
COC(=O)C(C)(N)Cc1ccc(O)cc1 (racemic) [alpha-Methyl-DL-tyrosine methyl ester hydrochloride]	-0.0213
CC(C)NCC(O)COc1cccc2[nH]ccc12 (centres undefined) [Pindolol]	-0.0213
CC(C)C(=O)c1c(C(C)C)nn2ccccc12 [Ibudilast]	0.0535
Nc1ncnc2c1ncn2[C@@H]1O[C@@H]2COP(=O)(O)O[C@H]2[C@H]1O [Adenosine 3',5'-cyclic monophosphate]	0.0408
CC12CC3CC(C)(C1)CC(N)(C3)C2 [Memantine hydrochloride]	0.147
O=C(Nc1cccnc1)N1CCC(Cc2cccc(Oc3ccc(C(F)(F)F)cn3)c2)CC1	0.0336
O=C(Nc1ccc([N+](=O)[O-])cc1Cl)c1cc(Cl)ccc1O [Niclosamide]	0.0378
C#C[C@]1(O)CC[C@H]2[C@@H]3CCC4=Cc5oncc5C[C@]4(C)[C@H]3CC[C@@]21C [Danazol]	0.0661
Cc1cccc(-c2nn3c(c2-c2ccnc4ccc(C(N)=O)cc24)CCC3)n1	-0.00193
CO[C@H]1C[C@@H]2CC[C@@H](C)[C@@](O)(O2)C(=O)C(=O)N2CCCC[C@H]2C(=O)O[C@H]([C@H](C)C[C@@H]2CC[C@@H](OC(=O)C(C)(CO)CO)[C@H](OC)C2)CC(=O)[C@H](C)/C=C(\C)[C@@H](O)[C@@H](OC)C(=O)[C@H](C)C[C@H](C)/C=C/C=C/C=C/1C [Temsirolimus (Torisel)]	-0.147
CN(C(=O)CCCOc1ccc2[nH]c(=O)ccc2c1)C1CCCCC1 [Cilostamide]	-0.0175
CN1CCN(c2ccc3nc(-c4c(N)c5c(F)cccc5[nH]c4=O)[nH]c3c2)CC1 [Dovitinib (TKI-258)]	4.45
N[C@@H](COP(=O)(O)O)C(=O)O [O-Phospho-L-serine]	0.0142
CCCCc1oc2ccccc2c1C(=O)c1cc(I)c(OCCN(CC)CC)c(I)c1 [Amiodarone hydrochloride]	0.00777
O=C(O)c1cc2cc(F)ccc2[nH]1 [5-Fluoroindole-2-carboxylic acid]	-0.0854
CCN1CCCC1CNC(=O)c1cc(S(N)(=O)=O)ccc1OC (centres undefined) [(?)-Sulpiride]	0.474
CN1CCN2c3ccccc3Cc3ccccc3C2C1 (centres undefined) [Mianserin hydrochloride]	0.0591
N[C@@H](Cc1ccc(O)c(O)c1)C(=O)O [L-3,4-Dihydroxyphenylalanine]	-0.0378
